PubChem BioAssay AID686937 | Drosophila RNAi Screening Center | 2013
The screen tested about 23,000 reagents; shown is an unselected part of those with a known target gene and a result. 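Reduced-secretion tags in replicate 1 do not always agree with the z-scores; no criterion for assigning the tags was given.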 A plus sign joins genes that one reagent is predicted to hit. Further read-outs or replicates are left out here. Not given: the amount of reagent.

- Test: 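Knock-downs that reduce output of a secreted reporter enzyme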 (primary screen)
- Cell system: Drosophila S2 cells expressing secreted horseradish peroxidase
- Reagents: long dsRNA against Drosophila genes
- Duration: about 5.5 days (5 days dsRNA, then 12 h reporter induction)
- Conditions: reporter expression induced after 5 days of dsRNA, read 12 h later; inducer not stated
- Read-out: 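Chemiluminescent measurement of peroxidase in the medium 12 h after reporter induction, following 5 days of dsRNA, given as a z-score per plate; higher means more secretion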
- Direction: z-score: higher = more reporter secreted into medium

The opening 4 entries, to show the layout:
gene knocked down	amplicon	z-score, replicate 1	z-score, replicate 2	z-score, replicate 3
Uba2	DRSC11311	0.32	0.21	
l(2)37Cb	DRSC02095	-1.21	-1.35	
CG6928	DRSC10749	0.27	0.27	
Cog1	DRSC15661	-0.61	-0.36	

The listing, from the start:
gene knocked down	amplicon	z-score, replicate 1	z-score, replicate 2	z-score, replicate 3
Uba2	DRSC11311	0.32	0.21	
l(2)37Cb	DRSC02095	-1.21	-1.35	
CG6928	DRSC10749	0.27	0.27	
Cog1	DRSC15661	-0.61	-0.36	
CG31296	DRSC13092	0.18	0.08	
Dab	DRSC11140	0.71	0.49	0.19
Lcp9	DRSC04287	0.02	0.09	
mRRF1	DRSC10421	0.44	0.23	
SmB	DRSC03437	-6.18	-3.6	
Trmt112	DRSC11685	0.29	-0.03	
CG1137	DRSC12529	0.1	0.04	
G6P	DRSC00414	0.05	-0.04	
CG13245	DRSC02243	0.39	0.26	
TrpRS-m	DRSC10848	0.42	0.45	
CG32681	DRSC17646	0.15	0.54	
CG13622	DRSC14624	0.4	0.35	
CG15449	DRSC20521	0.7	0.46	
CG12699	DRSC06162	0.73	0.58	
Ih	DRSC05477	0.46	0.24	
Ih	DRSC07445	0.17	0.2	
Ih	DRSC22956	-0.73	-0.17	
eyg	DRSC11344	-2.17	-3.02	
dati	DRSC17128	0.15	0.23	
dati	DRSC17140	0.45	0.25	
dati	DRSC17153	0.22	0.4	
GstE4	DRSC06674	0.19	-0.03	
klu	DRSC11357	-0.07	0.08	
Tbcd	DRSC00273	0.44	0.5	
gek	DRSC04688	0.28	0	
CG17996 + Tsen2	DRSC02650	0.28	0.17	
Sid	DRSC16588	0.38	0.36	
CG12128	DRSC06104	0.4	0.28	
zen2	DRSC12633	0.13	-0.84	
